Test results published in PMC3742671, “Structure, Antimicrobial Activities and Mode of Interaction with Membranes of Bovel Phylloseptins from the Painted-Belly Leaf Frog, Phyllomedusa sauvagii” (PLoS ONE, 2013).

How the values were obtained:
[1] = Differential scanning calorimetry on multilamellar vesicles; conditions: mean from six scans; for ΔTm, first of the two observed components / ΔTm, second of the two observed components: peptide/lipid 1:50; for ΔTm (Tm – Tm w/o peptide) of main phase transition: peptide/lipid 1:100
[2] = as above; conditions: mean from six scans

In the case of FLSLIPHIVSGVASIAKHF-NH2 [PLS-S1], the “ΔTm, first of the two observed components” value (“ΔTm, first” below) [1] is reported as −1 °C, the “ΔTm, second of the two observed components” value (“ΔTm, second” below) [1] is reported as 0.6 °C and the “ΔTm (Tm – Tm w/o peptide) of main phase transition” value (“ΔTm (Tm – Tm w/o peptide)” for short) [1] is reported as 0 °C. The “ΔTm (Tm – Tm w/o peptide)” value ([2]; peptide/lipid 1:50) was 0.1 °C and the “ΔTm (Tm – Tm w/o peptide)” value ([2]; peptide/lipid 1:100) was 0.3 °C.
For FLSLIPHIVSGVASLAKHF-NH2 [PLS-S2], the “ΔTm, first” value [1] was −1.1 °C, the “ΔTm, second” value [1] was 0.8 °C and the “ΔTm (Tm – Tm w/o peptide)” value [1] was 0 °C. The “ΔTm (Tm – Tm w/o peptide)” value ([2]; peptide/lipid 1:50) was 0.2 °C and the “ΔTm (Tm – Tm w/o peptide)” value ([2]; peptide/lipid 1:100) was 0.2 °C.
With FLSMIPHIVSGVAALAKHL-NH2 [PLS-S4] the “ΔTm, first” value [1] was −0.1 °C, the “ΔTm, second” value [1] was 5.1 °C and the “ΔTm (Tm – Tm w/o peptide)” value [1] was 1.1 °C. The “ΔTm (Tm – Tm w/o peptide)” value ([2]; peptide/lipid 1:50) was 0 °C and the “ΔTm (Tm – Tm w/o peptide)” value ([2]; peptide/lipid 1:100) was 0.1 °C.

Ends that are not written are not given here.
